In the experiment the target is GST-PCBP2 (full-length poly(rC)-binding protein 2 expressed from a plasmid in 293T cells) (UniProt Q15366). Briefly: GST precipitation from 293T cells, anti-Strep immunoblot. On the technique in general: Immunoblotting shows a protein as a band on a membrane.

By UniProt entry, the sequences of proteins in these tests, tags left out. Where a name states a change or a piece, a line headed by the entry shows the natural chain unless it says otherwise.
UniProt Q15366: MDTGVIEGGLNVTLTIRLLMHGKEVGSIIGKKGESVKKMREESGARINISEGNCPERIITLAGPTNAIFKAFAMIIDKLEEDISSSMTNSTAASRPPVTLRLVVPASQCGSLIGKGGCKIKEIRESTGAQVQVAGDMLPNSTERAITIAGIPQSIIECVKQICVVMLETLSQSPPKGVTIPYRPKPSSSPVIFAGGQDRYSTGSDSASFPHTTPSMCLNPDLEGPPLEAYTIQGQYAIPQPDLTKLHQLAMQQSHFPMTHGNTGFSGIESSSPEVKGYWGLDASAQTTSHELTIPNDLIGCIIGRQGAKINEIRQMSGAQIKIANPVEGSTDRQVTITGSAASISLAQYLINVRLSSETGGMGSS
UniProt P07814: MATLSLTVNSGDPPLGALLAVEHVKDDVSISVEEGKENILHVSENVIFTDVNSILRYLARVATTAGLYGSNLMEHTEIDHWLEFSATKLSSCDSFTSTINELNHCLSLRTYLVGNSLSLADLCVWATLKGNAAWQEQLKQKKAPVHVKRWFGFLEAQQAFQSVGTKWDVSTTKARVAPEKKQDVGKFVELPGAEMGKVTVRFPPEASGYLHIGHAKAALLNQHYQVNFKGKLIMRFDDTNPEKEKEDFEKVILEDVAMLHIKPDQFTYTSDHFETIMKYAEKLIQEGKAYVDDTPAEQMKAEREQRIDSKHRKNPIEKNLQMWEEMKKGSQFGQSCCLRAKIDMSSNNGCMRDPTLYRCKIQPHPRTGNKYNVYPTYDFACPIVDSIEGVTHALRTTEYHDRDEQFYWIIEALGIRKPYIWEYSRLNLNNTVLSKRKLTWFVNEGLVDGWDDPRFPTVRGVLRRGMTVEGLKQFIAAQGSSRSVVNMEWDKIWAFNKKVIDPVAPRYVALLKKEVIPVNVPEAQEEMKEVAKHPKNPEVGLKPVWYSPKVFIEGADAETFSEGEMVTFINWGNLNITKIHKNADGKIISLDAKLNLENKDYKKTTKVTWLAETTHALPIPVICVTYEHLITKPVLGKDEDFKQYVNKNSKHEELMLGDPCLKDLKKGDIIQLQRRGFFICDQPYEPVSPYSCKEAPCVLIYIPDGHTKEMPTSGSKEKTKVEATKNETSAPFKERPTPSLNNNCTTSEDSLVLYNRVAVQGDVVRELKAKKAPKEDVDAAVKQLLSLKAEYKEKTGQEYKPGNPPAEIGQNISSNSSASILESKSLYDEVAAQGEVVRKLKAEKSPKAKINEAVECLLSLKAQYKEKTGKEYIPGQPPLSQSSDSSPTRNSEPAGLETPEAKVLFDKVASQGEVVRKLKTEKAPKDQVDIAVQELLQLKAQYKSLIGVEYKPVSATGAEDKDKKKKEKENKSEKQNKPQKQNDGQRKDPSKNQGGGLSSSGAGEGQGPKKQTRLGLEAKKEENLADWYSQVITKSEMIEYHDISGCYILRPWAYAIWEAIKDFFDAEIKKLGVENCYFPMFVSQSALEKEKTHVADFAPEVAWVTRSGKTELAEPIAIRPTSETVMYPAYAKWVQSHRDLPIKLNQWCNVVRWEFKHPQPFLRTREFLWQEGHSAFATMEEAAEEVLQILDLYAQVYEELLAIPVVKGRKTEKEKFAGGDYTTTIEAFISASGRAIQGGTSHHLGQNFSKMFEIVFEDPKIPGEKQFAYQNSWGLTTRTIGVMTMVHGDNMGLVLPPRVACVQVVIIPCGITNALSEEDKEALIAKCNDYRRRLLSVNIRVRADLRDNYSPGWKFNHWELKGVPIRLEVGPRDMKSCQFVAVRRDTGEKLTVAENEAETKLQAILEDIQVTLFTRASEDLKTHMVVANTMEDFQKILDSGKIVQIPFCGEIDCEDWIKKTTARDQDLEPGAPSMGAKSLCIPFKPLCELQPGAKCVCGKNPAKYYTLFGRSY

These are yes or no findings as the source states them, for the method shown. Some binding calls cover weakened binding; strength is not graded here.

As to “Strep-EPRS (Strep-tagged full-length glutamyl-prolyl-tRNA synthetase, wild type) (from UniProt P07814 1-1512) (enzyme)”, the binding entry is listed as “binds”.

Source of the values: patent US20190321455A1.
